# Reference: PubChem BioAssay AID652259 (Drosophila RNAi Screening Center, 2013)
# Assay: 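Genome-wide hunt for genes that control Wingless pathway activity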 (primary screen)
# Cell system: Drosophila clone 8 imaginal disc epithelial cells
# Reagents: long dsRNA against Drosophila genes
# Treatment: pathway stimulated by co-transfected Wingless expression plasmid
# Detection: 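Firefly luciferase from a tcf-site Wingless reporter, measured alongside co-transfected Renilla luciferase that tracks transfection; pathway stimulated by a Wingless plasmid; the firefly-to-Renilla ratio is not deposited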
# Reading the numbers: firefly reporter light: higher = more Wg reporter light, before normalisation; Renilla control light: higher = more transfected or surviving cells
# Hit rule: 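Strong candidates differ from their plate mean by at least two out of four per-plate statistical tests; weak candidates meet just one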
# Meaning of the calls: active = candidate regulator (raises or lowers reporter); inactive = not a candidate
# The deposit covers about 22,000 reagents; shown is an unselected part of those that have a named target and a result. Over the whole deposit, 233 (1.1%) got an active call. 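Light values are raw, unnormalised plate reads; the ratio scores behind the reporter calls were not deposited.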 The numbers tell different reagents against one gene apart. A plus sign joins genes that one reagent is predicted to hit. The record does not give: the amount of reagent, the time to read-out, the dose of the treatment.
Gene,dsRNA no.,"reporter change call, replicate 1","firefly reporter light, replicate 1","firefly reporter light, replicate 2","Renilla control light, replicate 1","Renilla control light, replicate 2",outcome
Arp53D,1,,6514,,2358,,inactive
gol,1,,10790,,3760,,inactive
CG15625,1,,2608,5094,769,785,inactive
CG14342,1,,2595,7036,896,2649,inactive
mei-217 + mei-218,1,,20445,,10922,,inactive
Calx,1,,3420,,1843,,inactive
Calx,2,,3056,,2009,,inactive
Calx,3,,14203,,3385,,inactive
Calx,4,,9.91e5,6.64e5,3.19e5,3.48e5,inactive
Muc68D,1,,3113,,1813,,inactive
kek3,1,,3930,8080,1533,4390,inactive
kek3,2,,5.56e5,5.81e5,2.09e5,2.47e5,inactive
Acsx4,1,,13296,,3517,,inactive
Obp28a,1,,1954,6297,372,3267,inactive
CG1690,1,,4608,16418,1337,5520,inactive
CG13028,1,,9588,,3962,,inactive
tow,1,,2144,6819,281,627,inactive
BtbVII,1,,5024,,1096,,inactive
BtbVII,2,,4761,,1917,,inactive
M6,1,,10912,,4552,,inactive
CG6908,1,,14304,,3656,,inactive
CG17010,1,,13975,,3772,,inactive
CG11836,1,,1723,5320,1095,1639,inactive
Vps45,1,,8288,,2829,,inactive
mRpL19,1,,19019,,6173,,inactive
mRpL19,2,,6.61e5,7.14e5,4.90e5,3.47e5,inactive
Peritrophin-15a,1,,2220,8297,1113,4593,inactive
Gorab,1,,8390,,3125,,inactive
CG18262,1,,24429,,10176,,inactive
Vps4,1,Wg reporter activity raised,4556,14823,493,2417,active
Trf4-1,1,,25800,,13578,,inactive
CG6891,1,,5260,11192,1616,4860,inactive
CG6659,1,,2316,7610,845,3014,inactive
E2f2,1,,11200,,4357,,inactive
CG30345,1,,12440,,5915,,inactive
CSN1b,1,,6919,,2215,,inactive
Tim9a,1,,22386,,11690,,inactive

Quoted from above (5 entries):
Gene,dsRNA no.,"reporter change call, replicate 1","firefly reporter light, replicate 1","firefly reporter light, replicate 2","Renilla control light, replicate 1","Renilla control light, replicate 2",outcome
Calx,2,,3056,,2009,,inactive
Calx,3,,14203,,3385,,inactive
Calx,4,,9.91e5,6.64e5,3.19e5,3.48e5,inactive
Muc68D,1,,3113,,1813,,inactive
kek3,1,,3930,8080,1533,4390,inactive

Next entries follow:
Gene,dsRNA no.,"reporter change call, replicate 1","firefly reporter light, replicate 1","firefly reporter light, replicate 2","Renilla control light, replicate 1","Renilla control light, replicate 2",outcome
Esp,1,,18832,,16137,,inactive
Bem46,1,,5457,6108,1250,1723,inactive
CG15912,1,,19818,,9661,,inactive
CG15080,1,,8428,,3097,,inactive
SmydA-8,1,,31875,,18576,,inactive
SmydA-8,2,,4.71e5,4.69e5,2.00e5,2.41e5,inactive
SmydA-8,3,,2.81e5,3.60e5,1.31e5,1.63e5,inactive
CG44085,1,Wg reporter activity raised,3440,11762,501,2555,active
CG44085,2,,2737,10208,1465,4876,inactive
hep,1,,18379,,8330,,inactive
hep,2,,13597,,6914,,inactive
Mur11Da,1,,4354,,1355,,inactive
CG17472,1,,2672,8214,779,3632,inactive
Agpat3,1,,4198,,1568,,inactive
msl-2,1,,19452,,4072,,inactive
Drsl2,1,,5681,,3525,,inactive
CG31102,1,,25469,,20553,,inactive
CG14893,1,,13104,,3971,,inactive
CG15577,1,,27777,,13273,,inactive
Vha44,1,Wg reporter activity raised,30471,,5009,,inactive
Vha44,2,,7561,,1866,,inactive
ry,1,,4661,,1957,,inactive
CG12985,1,,20449,,7004,,inactive
Pfdn6,1,,15617,,5653,,inactive
CG5568,1,,8832,,3717,,inactive
CG5568,2,,4.58e5,5.18e5,1.93e5,2.44e5,inactive
CG10298,1,,10715,,3872,,inactive
Df31,1,,15565,,3335,,inactive
Df31,2,,8.81e5,8.19e5,4.09e5,4.86e5,inactive
bab2,1,,2980,,1557,,inactive
bab2,2,,3161,,822,,inactive
ATPsynCF6,1,,19959,,13700,,inactive
Synd,1,,15363,,3185,,inactive
U4-U6-60K,1,,6854,,1849,,inactive
Pka-C2,1,,3860,,1984,,inactive
Pgant1,1,,6577,,2326,,inactive
